Assay results published in the supplement of paper PMC8728848.
The other results are listed elsewhere or left out.

Assays:
Test in all cases: glycan array binding signal (z-score within array); higher = stronger binding
Settings in all cases: glycan notation: IUPAC condensed, linker removed
[1] = biological target: Gal(b1-4)GlcNAc(b1-2)[Gal(b1-4)GlcNAc(b1-6)]Man(a1-6)[GlcNAc(b1-4)][Gal(b1-4)GlcNAc(b1-2)Man(a1-3)]Man(b1-4)GlcNAc(b1-4)GlcNAc
Outline: (§1)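 Arrays were curated from the Consortium for Functional Glycomics database, 3228 in total, and kept only where the protein sequence was available. Binding is expressed as a within-array Z-score. This score was averaged across arrays of the same protein sequence at different concentrations or buffers and across linkers, and negative values can be read as non-binding.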

[2] = biological target: Gal(b1-4)GlcNAc(b1-2)[Gal(b1-4)GlcNAc(b1-6)]Man(a1-6)[GlcNAc(b1-4)][Gal(b1-4)GlcNAc(b1-2)[Gal(b1-4)GlcNAc(b1-4)]Man(a1-3)]Man(b1-4)GlcNAc(b1-4)[Fuc(a1-6)]GlcNAc
Outline: as §1

[3] = biological target: Gal(b1-4)GlcNAc(b1-3)Gal(b1-3)GalNAc
Outline: as §1

[4] = biological target: Gal(b1-4)GlcNAc(b1-3)Gal(b1-3)GlcNAc
Outline: as §1

[5] = biological target: Gal(b1-4)GlcNAc(b1-3)Gal(b1-4)Glc
Outline: as §1

[6] = biological target: Gal(b1-4)GlcNAc(b1-3)Gal(b1-4)GlcNAc
Outline: as §1

[7] = biological target: Gal(b1-4)GlcNAc(b1-3)Gal(b1-4)GlcNAc(b1-2)Man(a1-3)[Gal(b1-4)GlcNAc(b1-3)Gal(b1-4)GlcNAc(b1-2)Man(a1-6)]Man(b1-4)GlcNAc(b1-4)GlcNAc
Outline: as §1

[8] = biological target: Gal(b1-4)GlcNAc(b1-3)Gal(b1-4)GlcNAc(b1-2)Man(a1-3)[Gal(b1-4)GlcNAc(b1-3)Gal(b1-4)GlcNAc(b1-2)Man(a1-6)]Man(b1-4)GlcNAc(b1-4)[Fuc(a1-6)]GlcNAc
Outline: as §1

[9] = biological target: Gal(b1-4)GlcNAc(b1-3)Gal(b1-4)GlcNAc(b1-2)[Gal(b1-4)GlcNAc(b1-3)Gal(b1-4)GlcNAc(b1-6)]Man(a1-6)[Gal(b1-4)GlcNAc(b1-3)Gal(b1-4)GlcNAc(b1-2)Man(a1-3)]Man(b1-4)GlcNAc(b1-4)GlcNAc
Outline: as §1

[10] = biological target: Gal(b1-4)GlcNAc(b1-3)Gal(b1-4)GlcNAc(b1-2)[Gal(b1-4)GlcNAc(b1-3)Gal(b1-4)GlcNAc(b1-6)]Man(a1-6)[Gal(b1-4)GlcNAc(b1-3)Gal(b1-4)GlcNAc(b1-2)Man(a1-3)]Man(b1-4)GlcNAc(b1-4)[Fuc(a1-6)]GlcNAc
Outline: as §1

[11] = biological target: Gal(b1-4)GlcNAc(b1-3)Gal(b1-4)GlcNAc(b1-3)Gal(b1-4)GlcNAc
Outline: as §1

[12] = biological target: Gal(b1-4)GlcNAc(b1-3)Gal(b1-4)GlcNAc(b1-3)Gal(b1-4)GlcNAc(b1-2)Man(a1-3)[Gal(b1-4)GlcNAc(b1-3)Gal(b1-4)GlcNAc(b1-3)Gal(b1-4)GlcNAc(b1-2)Man(a1-6)]Man(b1-4)GlcNAc(b1-4)GlcNAc
Outline: as §1

[13] = biological target: Gal(b1-4)GlcNAc(b1-3)Gal(b1-4)GlcNAc(b1-3)Gal(b1-4)GlcNAc(b1-2)Man(a1-3)[Gal(b1-4)GlcNAc(b1-3)Gal(b1-4)GlcNAc(b1-3)Gal(b1-4)GlcNAc(b1-2)Man(a1-6)]Man(b1-4)GlcNAc(b1-4)[Fuc(a1-6)]GlcNAc
Outline: as §1

[14] = biological target: Gal(b1-4)GlcNAc(b1-3)Gal(b1-4)GlcNAc(b1-3)Gal(b1-4)GlcNAc(b1-2)[Gal(b1-4)GlcNAc(b1-3)Gal(b1-4)GlcNAc(b1-3)Gal(b1-4)GlcNAc(b1-6)]Man(a1-6)[Gal(b1-4)GlcNAc(b1-3)Gal(b1-4)GlcNAc(b1-3)Gal(b1-4)GlcNAc(b1-2)Man(a1-3)]Man(b1-4)GlcNAc(b1-4)[Fuc(a1-6)]GlcNAc
Outline: as §1

[15] = biological target: Gal(b1-4)GlcNAc(b1-3)Gal(b1-4)GlcNAc(b1-3)Gal(b1-4)GlcNAc(b1-3)Gal(b1-4)GlcNAc(b1-2)Man(a1-3)[Gal(b1-4)GlcNAc(b1-3)Gal(b1-4)GlcNAc(b1-3)Gal(b1-4)GlcNAc(b1-3)Gal(b1-4)GlcNAc(b1-2)Man(a1-6)]Man(b1-4)GlcNAc(b1-4)GlcNAc
Outline: as §1

[16] = biological target: Gal(b1-4)GlcNAc(b1-3)Gal(b1-4)GlcNAc(b1-3)Gal(b1-4)GlcNAc(b1-3)Gal(b1-4)GlcNAc(b1-2)Man(a1-3)[Gal(b1-4)GlcNAc(b1-3)Gal(b1-4)GlcNAc(b1-3)Gal(b1-4)GlcNAc(b1-3)Gal(b1-4)GlcNAc(b1-2)Man(a1-6)]Man(b1-4)GlcNAc(b1-4)[Fuc(a1-6)]GlcNAc
Outline: as §1

[17] = biological target: Gal(b1-4)GlcNAc(b1-3)Gal(b1-4)GlcNAc(b1-3)Gal(b1-4)GlcNAc(b1-3)Gal(b1-4)GlcNAc(b1-2)[Gal(b1-4)GlcNAc(b1-3)Gal(b1-4)GlcNAc(b1-3)Gal(b1-4)GlcNAc(b1-3)Gal(b1-4)GlcNAc(b1-6)]Man(a1-6)[Gal(b1-4)GlcNAc(b1-3)Gal(b1-4)GlcNAc(b1-3)Gal(b1-4)GlcNAc(b1-3)Gal(b1-4)GlcNAc(b1-2)Man(a1-3)]Man(b1-4)GlcNAc(b1-4)[Fuc(a1-6)]GlcNAc
Outline: as §1

[18] = biological target: Gal(b1-4)GlcNAc(b1-3)Gal(b1-4)GlcNAc(b1-3)Gal(b1-4)GlcNAc(b1-3)Gal(b1-4)GlcNAc(b1-3)Gal(b1-4)GlcNAc(b1-2)Man(a1-3)[Gal(b1-4)GlcNAc(b1-3)Gal(b1-4)GlcNAc(b1-3)Gal(b1-4)GlcNAc(b1-3)Gal(b1-4)GlcNAc(b1-3)Gal(b1-4)GlcNAc(b1-2)Man(a1-6)]Man(b1-4)GlcNAc(b1-4)GlcNAc
Outline: as §1

[19] = biological target: Gal(b1-4)GlcNAc(b1-3)Gal(b1-4)GlcNAc(b1-3)Gal(b1-4)GlcNAc(b1-3)Gal(b1-4)GlcNAc(b1-3)Gal(b1-4)GlcNAc(b1-2)Man(a1-3)[Gal(b1-4)GlcNAc(b1-3)Gal(b1-4)GlcNAc(b1-3)Gal(b1-4)GlcNAc(b1-3)Gal(b1-4)GlcNAc(b1-3)Gal(b1-4)GlcNAc(b1-2)Man(a1-6)]Man(b1-4)GlcNAc(b1-4)[Fuc(a1-6)]GlcNAc
Outline: as §1

[20] = biological target: Gal(b1-4)GlcNAc(b1-3)Gal(b1-4)GlcNAc(b1-3)Gal(b1-4)GlcNAc(b1-3)Gal(b1-4)GlcNAc(b1-3)Gal(b1-4)GlcNAc(b1-2)[Gal(b1-4)GlcNAc(b1-3)Gal(b1-4)GlcNAc(b1-3)Gal(b1-4)GlcNAc(b1-3)Gal(b1-4)GlcNAc(b1-3)Gal(b1-4)GlcNAc(b1-6)]Man(a1-6)[Gal(b1-4)GlcNAc(b1-3)Gal(b1-4)GlcNAc(b1-3)Gal(b1-4)GlcNAc(b1-3)Gal(b1-4)GlcNAc(b1-3)Gal(b1-4)GlcNAc(b1-2)Man(a1-3)]Man(b1-4)GlcNAc(b1-4)[Fuc(a1-6)]GlcNAc
Outline: as §1

[21] = biological target: Gal(b1-4)GlcNAc(b1-3)Gal(b1-4)GlcNAc(b1-3)Gal(b1-4)GlcNAc(b1-3)Gal(b1-4)GlcNAc(b1-3)Gal(b1-4)GlcNAc(b1-3)Gal(b1-4)GlcNAc(b1-2)Man(a1-3)[Gal(b1-4)GlcNAc(b1-3)Gal(b1-4)GlcNAc(b1-3)Gal(b1-4)GlcNAc(b1-3)Gal(b1-4)GlcNAc(b1-3)Gal(b1-4)GlcNAc(b1-3)Gal(b1-4)GlcNAc(b1-2)Man(a1-6)]Man(b1-4)GlcNAc(b1-4)GlcNAc
Outline: as §1

[22] = biological target: Gal(b1-4)GlcNAc(b1-3)Gal(b1-4)GlcNAc(b1-3)GalNAc
Outline: as §1

[23] = biological target: Gal(b1-4)GlcNAc(b1-3)Gal(b1-4)GlcNAc(b1-3)[Gal(b1-4)GlcNAc(b1-3)Gal(b1-4)GlcNAc(b1-6)]GalNAc
Outline: as §1

B1: MXA PilAct-eGFP (Myxococcus xanthus), Q59589 (protein)
chain: MRVSRFNPRNRGFTLIELMIVVAIIGILAAIAIPNFIKFQARSKQSEAKTNLKALYTAQKSFFSEKDRYSDFANEIGFAPERGNRYGYRVSAAAGDCEVRNAADLPVPAAGVPCISNDSFRFGANSAIDDPTPVVARFVPQGAAGWNTTLGVQPTIADCPNCNFFAGARGNADNEATFDDWVIAGFEGSGQVGPCSEAGNVASGTPYNTRNDVACDGAAQ
glycan array binding signal (z-score) [1]: 0.776 | glycan array binding signal (z-score) [2]: 0.16 | glycan array binding signal (z-score) [3]: -1.05 | glycan array binding signal (z-score) [4]: -0.29 | glycan array binding signal (z-score) [5]: -0.853 | glycan array binding signal (z-score) [6]: 1.25 | glycan array binding signal (z-score) [7]: 0.107 | glycan array binding signal (z-score) [8]: 2.31 | glycan array binding signal (z-score) [9]: -0.993 | glycan array binding signal (z-score) [10]: 0.219 | glycan array binding signal (z-score) [11]: 1.75 | glycan array binding signal (z-score) [12]: 0.59 | glycan array binding signal (z-score) [13]: 2.05 | glycan array binding signal (z-score) [14]: 1.63 | glycan array binding signal (z-score) [15]: 2.31 | glycan array binding signal (z-score) [16]: 0.64 | glycan array binding signal (z-score) [17]: 3.46 | glycan array binding signal (z-score) [18]: 2.47 | glycan array binding signal (z-score) [19]: 0.551 | glycan array binding signal (z-score) [20]: 2.3 | glycan array binding signal (z-score) [21]: 0.42 | glycan array binding signal (z-score) [22]: -1.23 | glycan array binding signal (z-score) [23]: -0.556
